In PMC11934774:
These are yes or no findings as the source states them, for the method shown. Binding seen in cells or lysates may run through a third protein. These calls come from enrichment with a bait or labelling near it, and not all partners need be listed.

Protein sequences, listed by entry. Tags and fused reporters are not part of them. Lines headed by an entry give the natural chain unless they say otherwise; changes in a name come on top. Chains listed by the source or under a name are the forms on record and can include a tag or linker.
C-X-C motif chemokine receptor 3 (CXCR3) (human (endogenous in HRMECs)) (P49682, form named): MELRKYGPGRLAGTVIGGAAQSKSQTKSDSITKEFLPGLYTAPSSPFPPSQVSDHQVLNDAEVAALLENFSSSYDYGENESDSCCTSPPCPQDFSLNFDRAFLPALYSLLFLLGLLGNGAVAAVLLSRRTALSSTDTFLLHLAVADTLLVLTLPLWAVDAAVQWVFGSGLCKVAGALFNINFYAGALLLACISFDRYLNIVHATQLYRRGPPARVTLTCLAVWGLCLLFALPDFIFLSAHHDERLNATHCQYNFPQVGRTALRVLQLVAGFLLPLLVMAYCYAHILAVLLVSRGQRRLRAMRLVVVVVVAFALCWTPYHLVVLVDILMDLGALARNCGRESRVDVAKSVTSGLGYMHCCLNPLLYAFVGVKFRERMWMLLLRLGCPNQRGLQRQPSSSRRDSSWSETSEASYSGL
UniProt P17174: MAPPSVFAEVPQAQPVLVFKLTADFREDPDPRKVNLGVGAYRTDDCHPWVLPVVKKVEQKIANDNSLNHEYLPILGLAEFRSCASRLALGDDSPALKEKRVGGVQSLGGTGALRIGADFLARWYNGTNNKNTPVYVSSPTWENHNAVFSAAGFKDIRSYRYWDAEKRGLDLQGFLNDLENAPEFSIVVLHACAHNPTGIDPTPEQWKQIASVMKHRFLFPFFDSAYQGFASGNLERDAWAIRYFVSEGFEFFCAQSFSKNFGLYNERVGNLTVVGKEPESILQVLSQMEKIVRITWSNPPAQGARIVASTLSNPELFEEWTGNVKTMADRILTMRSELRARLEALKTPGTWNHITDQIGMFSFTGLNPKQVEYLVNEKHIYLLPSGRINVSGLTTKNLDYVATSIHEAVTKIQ
UniProt Q15717: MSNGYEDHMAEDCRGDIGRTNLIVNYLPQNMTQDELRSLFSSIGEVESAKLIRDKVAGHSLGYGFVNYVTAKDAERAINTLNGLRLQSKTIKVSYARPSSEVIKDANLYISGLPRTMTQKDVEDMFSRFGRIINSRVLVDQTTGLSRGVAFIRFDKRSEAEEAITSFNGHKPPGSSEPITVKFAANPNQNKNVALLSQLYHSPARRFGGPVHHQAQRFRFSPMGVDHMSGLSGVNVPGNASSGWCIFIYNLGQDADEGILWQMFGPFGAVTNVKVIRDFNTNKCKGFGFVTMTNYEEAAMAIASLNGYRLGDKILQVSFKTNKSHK
UniProt P15090: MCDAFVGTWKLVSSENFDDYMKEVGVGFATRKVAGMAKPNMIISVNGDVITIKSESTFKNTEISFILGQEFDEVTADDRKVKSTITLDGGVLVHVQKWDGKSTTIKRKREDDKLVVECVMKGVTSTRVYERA
UniProt P04792: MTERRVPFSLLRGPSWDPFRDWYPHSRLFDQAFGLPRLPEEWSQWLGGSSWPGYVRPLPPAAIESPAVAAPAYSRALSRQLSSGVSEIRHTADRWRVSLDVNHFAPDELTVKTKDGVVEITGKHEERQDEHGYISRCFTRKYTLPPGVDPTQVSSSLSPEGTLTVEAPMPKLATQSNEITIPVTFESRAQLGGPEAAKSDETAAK

Target: C-X-C motif chemokine receptor 3 (CXCR3) (human (endogenous in HRMECs)) (UniProt P49682)
Assay: affinity purification with mass spectrometry; CoIP with an anti-CXCR3 antibody from NP-40 lysate of normal HRMECs, control IgG in parallel, overnight at 4 °C, agarose beads, washed with precooled PBS; tryptic digest, LC-MS/MS (Orbitrap Exploris 480), Homo sapiens database

Row | Molecule | binding
1 | Glutamic-Oxaloacetic Transaminase (GOT1) (from UniProt P17174 1-413) | binds
2 | ELAV Like RNA Binding Protein 1 (ELAVL1) (from UniProt Q15717 1-326) | binds
3 | Valosin containing protein (VCP) (from UniProt P55072 1-806) | binds
4 | Fatty acid binding protein 4 (FABP4) (from UniProt P15090 1-132) | binds
5 | heat shock protein beta-1 (HSPB1) (from UniProt P04792 1-205) | binds
6 | Arachidonate 12-Lipoxygenase, 12R Type (ALOX12B) (protein, UniProt O75342 1-701) MATYKVRVATGTDLLSGTRDSISLTIVGTQGESHKQLLNHFGRDFATGAVGQYTVQCPQDLGELIIIRLHKERYAFFPKDPWYCNYVQICAPNGRIYHFPAYQWMDGYETLALREATGKTTADDSLPVLLEHRKEEIRAKQDFYHWRVFLPGLPSYVHIPSYRPPVRRHRNPNRPEWNGYIPGFPILINFKATKFLNLNLRYSFLKTASFFVRLGPMALAFKVRGLLDCKHSWKRLKDIRKIFPGKKSVVSEYVAEHWAEDTFFGYQYLNGVNPGLIRRCTRIPDKFPVTDDMVAPFLGEGTCLQAELEKGNIYLADYRIMEGIPTVELSGRKQHHCAPLCLLHFGPEGKMMPIAIQLSQTPGPDCPIFLPSDSEWDWLLAKTWVRYAEFYSHEAIAHLLETHLIAEAFCLALLRNLPMCHPLYKLLIPHTRYTVQINSIGRAVLLNEGGLSAKGMSLGVEGFAGVMVRALSELTYDSLYLPNDFVERGVQDLPGYYYRDDSLAVWNALEKYVTEIITYYYPSDAAVEGDPELQSWVQEIFKECLLGRESSGFPRCLRTVPELIRYVTIVIYTCSAKHAAVNTGQMEFTAWMPNFPASMRNPPIQTKGLTTLETFMDTLPDVKTTCITLLVLWTLSREPDDRRPLGHFPDIHFVEEAPRRSIEAFRQRLNQISHDIRQRNKCLPIPYYYLDPVLIENSISI | binds
7 | Catalase (CAT) (protein, UniProt P04040 1-527) MADSRDPASDQMQHWKEQRAAQKADVLTTGAGNPVGDKLNVITVGPRGPLLVQDVVFTDEMAHFDRERIPERVVHAKGAGAFGYFEVTHDITKYSKAKVFEHIGKKTPIAVRFSTVAGESGSADTVRDPRGFAVKFYTEDGNWDLVGNNTPIFFIRDPILFPSFIHSQKRNPQTHLKDPDMVWDFWSLRPESLHQVSFLFSDRGIPDGHRHMNGYGSHTFKLVNANGEAVYCKFHYKTDQGIKNLSVEDAARLSQEDPDYGIRDLFNAIATGKYPSWTFYIQVMTFNQAETFPFNPFDLTKVWPHKDYPLIPVGKLVLNRNPVNYFAEVEQIAFDPSNMPPGIEASPDKMLQGRLFAYPDTHRHRLGPNYLHIPVNCPYRARVANYQRDGPMCMQDNQGGAPNYYPNSFGAPEQQPSALEHSIQYSGEVRRFNTANDDNVTQVRAFYVNVLNEEQRKRLCENIAGHLKDAQIFIQKKAVKNFTEVHPDYGSHIQALLDKYNAEKPKNAIHTFVQSGSHLAAREKANL | binds
8 | phosphatase 1, regulatory (inhibitor) subunit 13 (PPP1R13L) (protein, UniProt Q8WUF5 1-828) MDSEAFQSARDFLDMNFQSLAMKHMDLKQMELDTAAAKVDELTKQLESLWSDSPAPPGPQAGPPSRPPRYSSSSIPEPFGSRGSPRKAATDGADTPFGRSESAPTLHPYSPLSPKGRPSSPRTPLYLQPDAYGSLDRATSPRPRAFDGAGSSLGRAPSPRPGPGPLRQQGPPTPFDFLGRAGSPRGSPLAEGPQAFFPERGPSPRPPATAYDAPASAFGSSLLGSGGSAFAPPLRAQDDLTLRRRPPKAWNESDLDVAYEKKPSQTASYERLDVFARPASPSLQLLPWRESSLDGLGGTGKDNLTSATLPRNYKVSPLASDRRSDAGSYRRSLGSAGPSGTLPRSWQPVSRIPMPPSSPQPRGAPRQRPIPLSMIFKLQNAFWEHGASRAMLPGSPLFTRAPPPKLQPQPQPQPQPQSQPQPQLPPQPQTQPQTPTPAPQHPQQTWPPVNEGPPKPPTELEPEPEIEGLLTPVLEAGDVDEGPVARPLSPTRLQPALPPEAQSVPELEEVARVLAEIPRPLKRRGSMEQAPAVALPPTHKKQYQQIISRLFHRHGGPGPGGPEPELSPITEGSEARAGPPAPAPPAPIPPPAPSQSSPPEQPQSMEMRSVLRKAGSPRKARRARLNPLVLLLDAALTGELEVVQQAVKEMNDPSQPNEEGITALHNAICGANYSIVDFLITAGANVNSPDSHGWTPLHCAASCNDTVICMALVQHGAAIFATTLSDGATAFEKCDPYREGYADCATYLADVEQSMGLMNSGAVYALWDYSAEFGDELSFREGESVTVLRRDGPEETDWWWAALHGQEGYVPRNYFGLFPRVKPQRSKV | binds
9 | Peroxiredoxin-1 (PRDX1) (protein, UniProt Q06830 1-199) MSSGNAKIGHPAPNFKATAVMPDGQFKDISLSDYKGKYVVFFFYPLDFTFVCPTEIIAFSDRAEEFKKLNCQVIGASVDSHFCHLAWVNTPKKQGGLGPMNIPLVSDPKRTIAQDYGVLKADEGISFRGLFIIDDKGILRQITVNDLPVGRSVDETLRLVQAFQFTDKHGEVCPAGWKPGSDTIKPDVQKSKEYFSKQK | binds
10 | thioredoxin-1 (TXN) (protein, UniProt P10599-1 1-105) MVKQIESKTAFQEALDAAGDKLVVVDFSATWCGPCKMIKPFFHSLSEKYSNVIFLEVDVDDCQDVASECEVKCMPTFQFFKKGQKVGEFSGANKEKLEATINELV | binds
11 | Isocitrate Dehydrogenase 2 (IDH2) (protein, UniProt P48735 40-452) ADKRIKVAKPVVEMDGDEMTRIIWQFIKEKLILPHVDIQLKYFDLGLPNRDQTDDQVTIDSALATQKYSVAVKCATITPDEARVEEFKLKKMWKSPNGTIRNILGGTVFREPIICKNIPRLVPGWTKPITIGRHAHGDQYKATDFVADRAGTFKMVFTPKDGSGVKEWEVYNFPAGGVGMGMYNTDESISGFAHSCFQYAIQKKWPLYMSTKNTILKAYDGRFKDIFQEIFDKHYKTDFDKNKIWYEHRLIDDMVAQVLKSSGGFVWACKNYDGDVQSDILAQGFGSLGLMTSVLVCPDGKTIEAEAAHGTVTRHYREHQKGRPTSTNPIASIFAWTRGLEHRGKLDGNQDLIRFAQMLEKVCVETVESGAMTKDLAGCIHGLSNVKLNEHFLNTTDFLDTIKSNLDRALGRQ | binds
